Series [1] has as its target CCA1-GST (UniProt P92973). As to the kind of experiment: competition with a labelled probe. The conditions noted are these: EMSA, excess unlabeled against labeled probe 1; 25 mM HEPES-KOH pH 7.5, 50 mM KCl, 2.5 mM DTT, 1 mM PMSF, 10% glycerol, 1 ug poly-dIdC in 10 ul, 20 min on ice (final concentrations calculated from 5X buffer); recombinant protein; protein details: GST (pGEX-3X); label: none (unlabeled competitor); probe letters rebuilt from the primers and the genome.

The chains behind the UniProt entries cited, without tags or fusion partners. Where a name states a change or a piece, a line headed by the entry shows the natural chain unless it says otherwise.
UniProt P92973: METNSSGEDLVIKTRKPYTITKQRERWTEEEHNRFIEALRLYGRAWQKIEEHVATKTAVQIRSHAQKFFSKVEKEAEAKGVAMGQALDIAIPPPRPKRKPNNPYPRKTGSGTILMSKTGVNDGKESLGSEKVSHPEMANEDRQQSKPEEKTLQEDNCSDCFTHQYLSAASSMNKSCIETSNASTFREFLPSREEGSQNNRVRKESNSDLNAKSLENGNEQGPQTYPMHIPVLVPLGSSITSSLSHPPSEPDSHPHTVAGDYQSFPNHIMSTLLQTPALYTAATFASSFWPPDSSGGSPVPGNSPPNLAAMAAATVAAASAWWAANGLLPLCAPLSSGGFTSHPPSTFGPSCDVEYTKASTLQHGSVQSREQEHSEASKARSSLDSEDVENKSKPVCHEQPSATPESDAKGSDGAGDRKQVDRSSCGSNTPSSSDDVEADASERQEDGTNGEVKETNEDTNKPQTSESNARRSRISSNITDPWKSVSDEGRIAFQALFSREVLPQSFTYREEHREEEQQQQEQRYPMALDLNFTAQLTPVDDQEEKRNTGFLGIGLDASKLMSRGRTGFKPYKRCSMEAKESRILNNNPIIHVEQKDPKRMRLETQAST

Series [2] addresses CCA1-GST (UniProt P92973). As to the kind of experiment: EMSA. The note with it: 30-90 ng protein, two shifted bands, competed dose-dependently by unlabeled probe 1; 25 mM HEPES-KOH pH 7.5, 50 mM KCl, 2.5 mM DTT, 1 mM PMSF, 10% glycerol, 1 ug poly-dIdC in 10 ul, 20 min on ice (final concentrations calculated from 5X buffer); recombinant protein; protein details: GST (pGEX-3X); label: 32P end label; probe letters rebuilt from the primers and the genome.

The exact form of at least one protein or probe is not confirmed. For some assays here: No signal at the amounts used counts as a negative.

For “ATCAACAAACCACTGATTCAACTACACTTTTGATTTAAATGTGAAAGCTAGTGAGACTCATTTAAAAAAACATTGATCATCTAAAAATAGAAACCCTAATTAAGGAATCAGGGAAAAAAGATTACCTGTGTAAGAAGGTAACCCCAGAAGAAAGAAGACTGAATCAGACCAACTGTTGCTGGATTCCAACCATACTCAGCTGACATCGGAAGTATAGCTATACTCATATTCACCTGTTAAAACATCATCTGTCCCAAATTGAATAACTCTTCCCAATCCATAAAAATCCAATCTTTTTTGCTACTTACTCTGTCCATATTGCAGAGAAGAAAAGCTGAGAAACAGAGTAACACAATCACCCACCGCTTCGGAAACTCTTCCCACCATGGGAGGACGATAGAGCTAGGCGAATCAGAAACGACGTCATTGTTTCCACTTACTTTATCTCCTTCTACGTAATACGAATTACTGCTTTCACTCTTGTCGGAGCTCCGAACTAATACCCGGAAAACACTGGACCTATTTCGCGGGTAG (double strand) [PHT4;1-NC (PHT4;1-negative)]”, in series [1], the binding result was “no binding”.

In the case of “GTAGAGAGAGTGAATATTTGAAGAGCAAAGAAGAGCTCTCGCGTTCATGGCGGAGATAGATTTTTTCTTCTTCTTCTCTGTTTTTTTCTTCTTTGTTTTAAGAGAGAGGAATTGATTTTTTTTTAAGGTCGTGGCTGATGTGACGACATGTGGCGTTTAAGTATTGGTTGAGTGAGGATGTCATAATCTAACGGGAAGTAACGGTTAACAGAATAACTATTGGAGGTCCATTATTAACTATCAGTTTAACATAAAGCCCATATAAGGCCCAAATAATGTTAGCTTACGAGCATAAATTGCGAGATCTATCTTACTTCCCCAATGAAAAAAAAATCTCAAAGATTTGGAAGTAGACCTATGAATAGAATTACAATAATACGGCAATACCAATAACAA (double strand) [PHT4;1 promoter probe 1]”, the binding result in series [2] is reported as “binds”.
